Where a chain is given by its changes, count along the chain named.
Columns and labels:
[1] = molecular target: receptor binding domain (RBD) of the spike protein of SARS-Cov-2 (SARS-CoV-2, UniProt P0DTC2 319-541); test: SPR, Biacore 3000
[2] = molecular target: T1, S1 domain of the spike protein of SARS-Cov-2 (SARS-CoV-2, UniProt P0DTC2 16-685); test: SPR, Biacore 3000
T1 construct: also called S1-His; SARS-CoV2 S1 protein

B1: fusion protein 212895 (SEQ ID NO: 29) (designed binder)
chain: AVLDIAQHSATEEIWWLPNLTKQQKVWFIMSLTQDPSVSKEVLGEAQKLNDSQAPKIAAQHDKIQQAADKEILHLPNLTEEQRNKFRQSLRDDPSVSAEILAEAKKLNDAQAPKIAAQHDKIQQAADKEILHLPNLTEEQRNKFRQSLRDDPSVSAEILAEAKKLNDAQAPKIAAQHDKIQQAADKEILHLPNLTEEQRNKFRQSLRDDPSVSAEILAEAKKLNDAQAPKC
off rate, fold against 212434 (SEQ ID NO: 1) [1]: ~3 fold faster
on-rate, fold against 212434 [2]: 10 fold lower

B2: fusion protein 212896 (SEQ ID NO: 30) (designed binder)
chain: B1 chain with A6D, S9A, K40L, V42I, G44A, Q47K, S52A
notes: also called Praesto85_212896 (as resin)
off rate, fold against 212434 (SEQ ID NO: 1) [1]: ~3 fold faster
on-rate, fold against 212434 [2]: 10 fold lower

— patent US20230272050A1 (NAVIGO PROTEINS, published 2023)
